The values below come from publication PMC8903684.

For this test, the target named is T1, Transmembrane protein 43 (TMEM43), endogenous (human (endogenous in MIAPaCa-2 and SW1990)) (UniProt Q9BTV4).
T1 sequence: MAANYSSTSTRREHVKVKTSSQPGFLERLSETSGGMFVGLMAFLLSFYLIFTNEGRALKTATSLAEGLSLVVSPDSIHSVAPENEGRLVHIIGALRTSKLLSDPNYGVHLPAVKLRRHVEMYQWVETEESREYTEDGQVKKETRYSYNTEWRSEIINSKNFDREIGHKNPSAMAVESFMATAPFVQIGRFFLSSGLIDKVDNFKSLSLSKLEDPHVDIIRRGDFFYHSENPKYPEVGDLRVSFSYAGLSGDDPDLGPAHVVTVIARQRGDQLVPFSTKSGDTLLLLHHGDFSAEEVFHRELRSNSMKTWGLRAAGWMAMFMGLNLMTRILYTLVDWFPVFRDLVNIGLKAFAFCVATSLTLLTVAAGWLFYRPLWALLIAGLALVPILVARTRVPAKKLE
The experiment in a line: affinity purification with mass spectrometry; co-IP of TMEM43 from MIAPaCa-2 cell lysate (RIPA lysis buffer, 200 ug protein), washed five times with PBS, SDS-PAGE, mass spectrometry.

Results are given in words; binding and its absence hold for the method and conditions named. In cells and extracts the contact can be indirect. A yes stands for co-enrichment or nearness to the bait. Other partners may have been found.

B1: Pre-mRNA processing factor 3 (PRPF3), endogenous (protein, UniProt O43395 1-683)
chain: MALSKRELDELKPWIEKTVKRVLGFSEPTVVTAALNCVGKGMDKKKAADHLKPFLDDSTLRFVDKLFEAVEEGRSSRHSKSSSDRSRKRELKEVFGDDSEISKESSGVKKRRIPRFEEVEEEPEVIPGPPSESPGMLTKLQIKQMMEAATRQIEERKKQLSFISPPTPQPKTPSSSQPERLPIGNTIQPSQAATFMNDAIEKARKAAELQARIQAQLALKPGLIGNANMVGLANLHAMGIAPPKVELKDQTKPTPLILDEQGRTVDATGKEIELTHRMPTLKANIRAVKREQFKQQLKEKPSEDMESNTFFDPRVSIAPSQRQRRTFKFHDKGKFEKIAQRLRTKAQLEKLQAEISQAARKTGIHTSTRLALIAPKKELKEGDIPEIEWWDSYIIPNGFDLTEENPKREDYFGITNLVEHPAQLNPPVDNDTPVTLGVYLTKKEQKKLRRQTRREAQKELQEKVRLGLMPPPEPKVRISNLMRVLGTEAVQDPTKVEAHVRAQMAKRQKAHEEANAARKLTAEQRKVKKIKKLKEDISQGVHISVYRVRNLSNPAKKFKIEANAGQLYLTGVVVLHKDVNVVVVEGGPKAQKKFKRLMLHRIKWDEQTSNTKGDDDEESDEEAVKKTNKCVLVWEGTAKDRSFGEMKFKQCPTENMAREHFKKHGAEHYWDLALSESVLESTD
As for B1, the binding result was “binds”.
